Measurements: patent US20220299513A1, “IRF2 AS A PROGNOSTIC BIOMARKER AND TARGET FOR AUGMENTING IMMUNOTHERAPY” (University of Massachusetts, priority 2019, published 2022)
At least one compound was matched to its structure with a doubt left.

Columns and labels:
[1] = system: TAP2 mRNA in F221 murine sarcoma cells; assay: TAP2 mRNA levels by qPCR in drug-treated F221 cells; format: cell-based; settings: Vorinostat 1 uM or 5 uM, Decitabine 5 uM, 24 hrs, vs DMSO control
Protocol: (§1) FIGS. 13A-B. (A) IRF2 & TAP2 mRNA levels, and MHC I surface protein levels in […] murine sarcoma cells treated with Vorinostat (1 uM or 5 uM), Decitabine (5 uM), or control diluent (DMSO) with no drug; (B) surface expression of MHC I on […] MCA-sarcoma cells treated with Vorinostat (5 uM) and/or Decitabine (5 uM). RNA was extracted from cell lines using the RNeasy kit (Qiagen) or from formalin-fixed paraffin-embedded non-small cell lung cancers using the RNeasy FFPE kit (Qiagen) and reverse transcribed to cDNA using EcoDry pre-mix random hexamers (Clontech). 50 ng cDNA were used per well (done in triplicate) with indicated TaqMan probes (Applied Biosystems), according to the manufacturer's instructions. The TaqMan probes used were as follows: We tested two epigenetic modifiers on an IRF2low, MHC I low murine cancer cell line ([…] MCA-sarcoma). […] murine sarcoma cells were treated with Vorinostat (1 uM or 5 uM), Decitabine (5 uM), or control diluent (DMSO) with no drug for 24 hrs and then assayed for IRF2 and TAP2 mRNA levels by qPCR and MHC I protein levels by flow cytometry.

[2] = system: IRF2 mRNA in F221 murine sarcoma cells; assay: IRF2 mRNA levels by qPCR in drug-treated F221 cells; format: cell-based; settings: Vorinostat 1 uM or 5 uM, Decitabine 5 uM, 24 hrs, vs DMSO control
Protocol: as §1

Q: How did the “mRNA for IRF2's target gene, TAP2” value [1] turn out when `Nc1ncn([C@H]2C[C@H](O)[C@@H](CO)O2)c(=O)n1` [Decitabine] was run?
A: increased

Q: What about the “expression of IRF2 mRNA” value [2] of the same compound?
A: increased
